Paper PMC7145534, “Are the intrinsically disordered linkers involved in SSB binding to accessory proteins?” (Nucleic Acids Research, 2019)
Where “and” joins values, the source holds several entries; their conditions need not be identical. Equal values may be shown once. Entries after “also recorded” stand apart in the source; their conditions may differ.

Legend:
[1] = test system: E. coli RecO; test: ITC of SSB tetramer–(dT)70 complexes binding to RecO; design: species or system Escherichia coli; conditions: for TΔS° / ΔG°: BTP pH 7.0, 200 mM NaCl, N fixed to 4
[2] = test system: DNA Pol III (χ); test: ITC of SSB-Ct peptides binding to the χ subunit; design: species or system Escherichia coli; conditions: pH 8.0, 50 mM NaCl, 25°C; K, N, ΔH floated
Method: (§1) The concentrations were determined thereafter.

[3] = test system: PriA; conditions: pH 8.0, 50 mM NaCl, 25°C; K, N, ΔH floated
[4] = test system: RecO
[5] = test system: PriA
[6] = test system: E. coli RecO; test: ITC of SSB-Ct peptides binding to RecO; design: species or system Escherichia coli
Method: as §1

[7] = test system: PriC; test: Sedimentation velocity, effect of P15 on PriC; assay type: binding, Escherichia coli
[8] = test system: E. coli RecO; test: ITC of SSB tetramers (apo) binding to RecO; design: species or system Escherichia coli; conditions: apo; for TΔS° / ΔG°: BTP pH 7.0, 200 mM NaCl, N fixed to 4
Method: as §1

[9] = test system: RecO; conditions: 0.35 μM tetramer + 3.5 μM RecO, BTP pH 7.0, 200 mM NaCl, 25°C
[10] = pH 7, 200 mM NaCl, 15°C, N fixed to 1
[11] = pH 7.0, 200 mM NaCl, 15 °C, N floated
[12] = pH 7, 200 mM NaCl, 25°C, N fixed to 1
[13] = pH 7.0, 200 mM NaCl, 25 °C, N floated
[14] = pH 7.0, 200 mM NaCl, 37 °C, N floated
[15] = pH 8, 50 mM NaCl, 25°C, N fixed to 1
[16] = pH 8.0, 50 mM NaCl, 25 °C, N floated
[17] = pH 8, 200 mM NaCl, 25°C, N fixed to 1
[18] = pH 8.0, 200 mM NaCl, 25 °C, N floated

## SSB–(dT)70: 1:1 complex of wtSSB tetramer with (dT)70
[1]; (dT)70 complex, 15, 25 and 37°C, pH 7.0, 200 mM NaCl
  binding stoichiometry, floated: near four

## P15: SSB-Ct peptide, C-terminal 15 amino acids of E. coli SSB, contains acidic tip, no PXXP motifs (PSNEPPMDFDDDIPF)
[2]
  ΔH (enthalpy change): -8.7 ± 0.8 kcal/mol
[3]
  ΔH (enthalpy change): -10.0 ± 0.4 kcal/mol
[4]; 30-fold excess P15
  assembly state of RecO: monomeric before and after P15 binding
[4]; 30-fold excess P15, BTP pH 8.0, 50 mM NaCl, RecO alone 2.06 S
  sedimentation coefficient s20,w of RecO with peptide: 2.16 S
[5]; 30-fold excess P15
  assembly state of PriA: monomeric before and after P15 binding
[5]; 30-fold excess P15, BTP pH 8.0, 50 mM NaCl, PriA alone 4.09 S
  sedimentation coefficient s20,w of PriA with peptide: 4.19 S
[6]; 200 mM NaCl, 25°C
  change in binding enthalpy, pH 8.0 to 7.0: ~2 kcal/mol
  reduction in affinity, pH 8.0 to 7.0: 3 fold
[6]; Figure S3, 10°C, pH 8.0, 50 mM, N floated
  ΔH: -0.48 ± 0.01 kcal/mol
[6]; Figure S3, 15°C, pH 8.0, 50 mM, N floated
  ΔH: -2.2 ± 0.04 kcal/mol
[6]; Figure S3, 37°C, pH 8.0, 50 mM, N floated
  ΔH: -9.03 ± 0.16 kcal/mol
[6]; Figure S3, 40°C, pH 8.0, 50 mM, N floated
  ΔH: -10.2 ± 0.23 kcal/mol
[6]; Figures S3/S4a, 25°C, pH 8.0, 50 mM NaCl, N floated
  ΔH: -5.0 ± 0.03 kcal/mol
[6]; Table S2 replicate 1
  TΔS°: 5.1 ± 0.1 kcal/mol
  ΔG°: -9.9 ± 0.1 kcal/mol
  ΔH: -4.8 ± 0.1 kcal/mol
[6]; Table S2 replicate 2
  TΔS°: 5.0 ± 0.1 kcal/mol
  ΔG°: -10.0 ± 0.1 kcal/mol
  ΔH: -5.0 ± 0.1 kcal/mol
[6]; [10]
  TΔS°: 5.9 ± 0.3 kcal/mol
  ΔG°: -8.3 ± 0.2 kcal/mol
[6]; [11]
  TΔS°: 5.8 ± 0.3 kcal/mol
  ΔG°: -8.2 ± 0.3 kcal/mol
[6]; [12]
  TΔS°: 2.0 ± 0.3 kcal/mol
  ΔG°: -8.1 ± 0.2 kcal/mol
[6]; [13]
  TΔS°: 2.2 ± 0.2 kcal/mol
  ΔG°: -8.2 ± 0.1 kcal/mol
[6]; pH 7, 200 mM NaCl, 37°C, N fixed to 1
  ΔG°: -8.1 ± 0.1 kcal/mol
[6]; [14]
  ΔG°: -8.0 ± 0.2 kcal/mol
  ΔH: -8.2 ± 0.1 kcal/mol
[6]; pH 7.0, 200 mM NaCl, 15-37°C
  heat capacity change, ΔCp: −0.24 ± 0.06 kcal/mol⋅deg
[6]; pH 8
  change in ΔH, 200 mM vs 50 mM NaCl: ~1.3 kcal/mol
  factor by which K is lower at 200 mM vs 50 mM NaCl: 4 factor
[6]; pH 8.0, 50 mM NaCl, 25°C, K, N, ΔH floated
  ΔH (enthalpy change): -4.8 ± 0.1 kcal/mol and -4.8 ± 0.7 kcal/mol
[6]; [15]
  TΔS°: 4.5 ± 0.2 kcal/mol
  ΔG°: -9.7 ± 0.2 kcal/mol
[6]; [16]
  TΔS°: 5.1 ± 0.1 kcal/mol
  ΔG°: -9.9 ± 0.1 kcal/mol
[6]; [17]
  TΔS°: 5.0 ± 0.1 kcal/mol
  ΔG°: -8.9 ± 0.1 kcal/mol
[6]; [18]
  TΔS°: 4.8 ± 0.1 kcal/mol
  ΔG°: -8.8 ± 0.1 kcal/mol
[7]; 30-fold excess P15
  assembly state of PriC: higher order species at ~3.5 S is suppressed; also recorded: favors the PriC monomer and suppresses the higher order species
[7]; 30-fold excess P15, BTP pH 8.0, 10 mM NaCl, PriC alone 1.89 S
  sedimentation coefficient s20,w of PriC with peptide: 1.95 S

## wtSSB: E. coli single strand DNA binding protein, homo-tetramer, wild type
[8]; 15°C
  TΔS°: -1.8 ± 0.3 kcal/mol
  ΔG°: -8.0 ± 0.1 kcal/mol
[8]; 25°C
  TΔS°: -1.0 ± 0.5 kcal/mol
  ΔG°: -8.4 ± 0.8 kcal/mol
[8]; 37°C
  TΔS°: 0.4 ± 0.8 kcal/mol
  ΔG°: -8.7 ± 0.1 kcal/mol
[8]; per SSB tail, pH 7.0, 200 mM NaCl, 15-37°C, listed as SSB
  heat capacity change, ΔCp: 0.06 ± 0.01 kcal/mol⋅deg
[9]
  sedimentation coefficient of SSB peak in presence of RecO: 1.7 S
[1]; in complex with (dT)70, 15°C
  TΔS°: 2.7 ± 0.2 kcal/mol
[1]; in complex with (dT)70, 25°C
  TΔS°: -1.3 ± 0.2 kcal/mol
  ΔG°: -9.0 ± 0.1 kcal/mol
[1]; in complex with (dT)70, 37°C
  TΔS°: 3.9 ± 0.6 kcal/mol
  ΔG°: -9.2 ± 0.3 kcal/mol

## P31: SSB-Ct peptide, C-terminal 31 amino acids of SSB, includes two of the PXXP motifs (FSGGAQSRPQQSAPAAPSNEPPMDFDDDIPF)
[2]
  ΔH (enthalpy change): -10.3 ± 0.8 kcal/mol
[3]
  ΔH (enthalpy change): -8.2 ± 1.2 kcal/mol
